Measured values from article PMC7862700.
This is a selection; strong and weak results do not stand in their true shares. At the low end of the ranking the order means little.

Amino acid sequences for entries named in this document (tags omitted). A change or cut given only in a name is not applied to a line headed by its entry.
UniProt O43186: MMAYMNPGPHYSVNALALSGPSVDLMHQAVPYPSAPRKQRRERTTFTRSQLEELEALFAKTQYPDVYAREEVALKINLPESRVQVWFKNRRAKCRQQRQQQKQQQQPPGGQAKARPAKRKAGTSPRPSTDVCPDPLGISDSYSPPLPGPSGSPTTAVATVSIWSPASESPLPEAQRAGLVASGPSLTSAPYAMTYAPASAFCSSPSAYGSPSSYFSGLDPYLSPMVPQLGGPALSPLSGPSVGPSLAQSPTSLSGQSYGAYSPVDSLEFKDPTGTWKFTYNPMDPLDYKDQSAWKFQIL

Legend:
Assay in all cases: DAPPL (digital affinity profiling via proximity ligation, sequencing)
Settings in all cases: 10 mM Tris-HCl pH 7.5, 50 mM NaCl, 1 mM DTT, 4% glycerol, room temperature, 30 min; GST-TFs on glutathione beads, 16-mer random dsDNA library, 0.1% …; high values mean tight binding; double strand, one strand shown; scale: fold enrichment (6-mer frequency, TF over GST control)
FEV = molecular target: T1, FEV (UniProt Q99581)
T1 sequence: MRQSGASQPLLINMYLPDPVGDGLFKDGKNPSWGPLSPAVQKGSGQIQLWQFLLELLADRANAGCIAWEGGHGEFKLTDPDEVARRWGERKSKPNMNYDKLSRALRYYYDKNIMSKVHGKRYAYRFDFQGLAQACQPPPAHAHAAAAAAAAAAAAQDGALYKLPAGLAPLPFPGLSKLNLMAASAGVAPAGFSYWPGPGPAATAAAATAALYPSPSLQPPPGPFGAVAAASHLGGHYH

CRX = CRX (UniProt O43186)
ELF5 = molecular target: T2, ELF5 (UniProt Q9UKW6-2)
T2 sequence: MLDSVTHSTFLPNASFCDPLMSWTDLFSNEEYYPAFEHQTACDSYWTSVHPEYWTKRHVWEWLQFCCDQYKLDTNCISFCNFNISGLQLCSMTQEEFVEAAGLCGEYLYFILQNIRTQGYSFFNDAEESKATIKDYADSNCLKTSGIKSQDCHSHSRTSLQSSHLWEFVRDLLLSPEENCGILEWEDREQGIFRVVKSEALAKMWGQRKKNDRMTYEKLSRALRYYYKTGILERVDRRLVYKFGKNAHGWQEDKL

Row | Sequence | binding signal (FEV) | binding signal (CRX) | binding signal (ELF5)
1 | GCGAGA | 0.472 | 0.554 | 0.488
2 | ACAGTA | 0.851 | 0.82 | 0.808
3 | CGAGTC | 0.521 | 0.421 | 0.451
4 | CCGTGG | 0.426 | 0.34 | 0.433
5 | CCGAGG | 0.728 | 0.601 | 0.662
6 | TCAGAG | 0.639 | 0.792 | 0.7
7 | TGTGAA | 0.809 | 0.718 | 0.754
8 | CGTCAG | 0.8 | 0.621 | 0.804
9 | AGTGAA | 0.907 | 0.698 | 0.937
10 | GCGGCC | 0.852 | 0.662 | 0.706
11 | GGGGAG | 0.379 | 0.307 | 0.385
12 | GCGTAG | 0.735 | 0.628 | 0.79
13 | CACGTC | 0.87 | 0.628 | 0.84
14 | GAAGAC | 0.837 | 0.651 | 0.992
15 | CAGGAC | 0.784 | 0.536 | 0.819
16 | GGGCTG | 0.938 | 0.708 | 0.861
17 | TCAGGT | 0.822 | 0.866 | 0.792
18 | TTCGTG | 0.928 | 0.882 | 0.906
19 | GAGGAT | 0.554 | 0.957 | 0.622
20 | AGTCGG | 0.148 | 0.134 | 0.148
21 | CGTGCC | 0.843 | 0.623 | 0.753
22 | GCGTGG | 0.505 | 0.433 | 0.543
23 | GCTTGA | 0.85 | 0.921 | 0.864
24 | CGTAGG | 0.633 | 0.556 | 0.622

Row | Sequence | binding signal (FEV) | binding signal (CRX) | binding signal (ELF5)
25 | CCCAGG | 0.75 | 0.626 | 0.72
26 | GAGTTA | 0.568 | 0.678 | 0.534
27 | ACAACG | 0.942 | 0.731 | 0.889
28 | GAGGGC | 0.594 | 0.47 | 0.554
29 | ACAGCG | 0.815 | 0.618 | 0.807
30 | TAGGTG | 0.825 | 0.947 | 0.766
31 | GTCCGA | 0.872 | 0.668 | 0.892
32 | TGAGAC | 0.555 | 0.467 | 0.497
33 | AGGTGG | 0.599 | 0.53 | 0.601
34 | GGTGTA | 0.874 | 0.671 | 0.767
35 | TACCAG | 0.817 | 0.977 | 0.838
36 | GTAGTA | 0.895 | 0.766 | 0.997
37 | GTCTGC | 0.929 | 0.643 | 0.844
38 | GGGGAA | 0.687 | 0.553 | 0.87
39 | ACAGGT | 0.754 | 0.603 | 0.79
40 | ACAGTC | 0.392 | 0.335 | 0.434
41 | GACTGG | 0.618 | 0.546 | 0.584
42 | ATCGGT | 0.658 | 0.735 | 0.677
43 | AAGGTG | 0.851 | 0.778 | 0.883
44 | ACGGAG | 0.338 | 0.302 | 0.354
45 | TCGGAT | 0.587 | 0.99 | 0.537
46 | GAGCAG | 0.587 | 0.492 | 0.601
47 | CAGCGA | 0.834 | 0.775 | 0.784
48 | CCCAGC | 0.863 | 0.829 | 0.863

Row | Sequence | binding signal (FEV) | binding signal (CRX) | binding signal (ELF5)
49 | GACACA | 0.862 | 0.627 | 0.937
50 | AGGCGA | 0.52 | 0.529 | 0.513
51 | GGAGCT | 0.572 | 0.615 | 0.532
52 | AAGCGT | 0.839 | 0.893 | 0.879
53 | AGGTGC | 0.586 | 0.528 | 0.632
54 | AGAGCA | 0.718 | 0.652 | 0.7
55 | GACACG | 0.665 | 0.486 | 0.698
56 | AGGTTG | 0.669 | 0.606 | 0.753
57 | CAGCTG | 0.845 | 0.746 | 0.753
58 | GGGAAG | 0.752 | 0.498 | 1.24
59 | GGCTGT | 0.794 | 0.663 | 0.732
60 | GGGGCG | 0.638 | 0.446 | 0.558
61 | CCGAGA | 0.629 | 0.635 | 0.602
62 | GTCAAT | 0.761 | 0.675 | 0.767
63 | TATCGG | 0.836 | 1.1 | 0.797
64 | CAACGG | 0.95 | 0.821 | 0.914
65 | CGCCAG | 0.652 | 0.498 | 0.654
66 | GAGATT | 0.716 | 1.57 | 0.655
67 | CGAGGC | 0.668 | 0.544 | 0.654
68 | TCGGGT | 0.558 | 0.61 | 0.58
69 | TGTAGT | 0.822 | 0.736 | 0.917
70 | TCGGGG | 0.359 | 0.414 | 0.375
71 | GGCAGA | 0.643 | 0.558 | 0.625
72 | GGCGGT | 0.395 | 0.286 | 0.399

Row | Sequence | binding signal (FEV) | binding signal (CRX) | binding signal (ELF5)
73 | GTGCCA | 0.807 | 0.587 | 0.745
74 | GAGACC | 0.267 | 0.129 | 0.18
75 | CAGGGC | 0.851 | 0.628 | 0.712
76 | GACGCG | 0.596 | 0.444 | 0.6
77 | AGTTCA | 0.869 | 0.76 | 0.925
78 | TTGTGA | 0.774 | 0.822 | 0.727
79 | CCAGTG | 0.472 | 0.365 | 0.431
80 | CGGCAG | 0.815 | 0.6 | 0.793
81 | AGTAAG | 0.778 | 0.916 | 0.84
82 | CGGTCG | 0.437 | 0.258 | 0.378
83 | AGAGCC | 0.731 | 0.641 | 0.701
84 | GGATAG | 0.696 | 0.646 | 0.731
85 | AGGGCG | 0.584 | 0.451 | 0.557
86 | GAGAGA | 0.404 | 0.422 | 0.396
87 | GAGTGA | 0.425 | 0.338 | 0.382
88 | GGCAAC | 0.871 | 0.576 | 0.91
89 | CTGAGT | 0.588 | 0.581 | 0.53
90 | GCATGC | 0.851 | 0.686 | 0.814
91 | GGAAAG | 0.938 | 0.802 | 
92 | AGACTA | 0.773 |  | 0.782
93 | CATGTC | 0.772 | 0.514 | 0.767
94 | CAAGGA | 0.683 | 0.665 | 
95 | AGCCGA | 0.843 |  | 0.791
96 | GCGTAA | 0.872 |  | 0.881

Reprinted at random: 6 records from the list, in no set order.
Row | Sequence | binding signal (FEV) | binding signal (CRX) | binding signal (ELF5)
74 | GAGACC | 0.267 | 0.129 | 0.18
82 | CGGTCG | 0.437 | 0.258 | 0.378
81 | AGTAAG | 0.778 | 0.916 | 0.84
76 | GACGCG | 0.596 | 0.444 | 0.6
85 | AGGGCG | 0.584 | 0.451 | 0.557
83 | AGAGCC | 0.731 | 0.641 | 0.701

Additional records follow.

Row | Sequence | binding signal (FEV) | binding signal (CRX) | binding signal (ELF5)
97 | GCCGTT | 0.831 | 0.698 | 0.77
98 | GGATGA | 0.951 | 1.11 | 
99 | GGCAGT | 0.499 | 0.395 | 0.521
100 | AGTAGT | 0.924 | 0.816 | 
101 | CGGGAA | 0.657 | 0.54 | 
102 | GCATAA | 0.826 |  | 0.796
103 | GAGTTC | 0.689 | 0.513 | 0.72
104 | GGGACG | 0.507 | 0.301 | 0.497
105 | AGGTTA | 0.708 | 0.878 | 0.742
106 | TTAGAC | 0.881 |  | 0.765
107 | GGCGTG | 0.291 | 0.234 | 0.316
108 | CCGCGA | 0.691 | 0.59 | 0.695
109 | GTAGGG | 0.723 | 0.594 | 0.749
110 | TCGTAA | 0.84 |  | 0.943
111 | TCCAGG | 0.765 | 0.806 | 
112 | AGCAGG | 0.836 | 0.734 | 
113 | GGGTGA | 0.617 | 0.497 | 0.623
114 | GTTAGA | 0.768 | 0.737 | 0.721
115 | GACGTC | 0.938 | 0.57 | 0.867
116 | AGGATC | 0.902 |  | 0.927
117 | TCGTAG | 0.83 | 0.766 | 0.796
118 | ATCAGG | 0.887 |  | 0.968
119 | TCAGAA | 0.886 |  | 0.89
120 | GCGGAT | 0.952 |  | 0.961
